Measured values: article PMC13391367
These are yes or no findings as the source states them, for the method shown. In cells and extracts the contact can be indirect. Here binding means that the protein was enriched with, or labelled near, the bait; the list need not be complete.

The chains behind the UniProt entries cited, without tags or fusion partners.
UniProt O60318: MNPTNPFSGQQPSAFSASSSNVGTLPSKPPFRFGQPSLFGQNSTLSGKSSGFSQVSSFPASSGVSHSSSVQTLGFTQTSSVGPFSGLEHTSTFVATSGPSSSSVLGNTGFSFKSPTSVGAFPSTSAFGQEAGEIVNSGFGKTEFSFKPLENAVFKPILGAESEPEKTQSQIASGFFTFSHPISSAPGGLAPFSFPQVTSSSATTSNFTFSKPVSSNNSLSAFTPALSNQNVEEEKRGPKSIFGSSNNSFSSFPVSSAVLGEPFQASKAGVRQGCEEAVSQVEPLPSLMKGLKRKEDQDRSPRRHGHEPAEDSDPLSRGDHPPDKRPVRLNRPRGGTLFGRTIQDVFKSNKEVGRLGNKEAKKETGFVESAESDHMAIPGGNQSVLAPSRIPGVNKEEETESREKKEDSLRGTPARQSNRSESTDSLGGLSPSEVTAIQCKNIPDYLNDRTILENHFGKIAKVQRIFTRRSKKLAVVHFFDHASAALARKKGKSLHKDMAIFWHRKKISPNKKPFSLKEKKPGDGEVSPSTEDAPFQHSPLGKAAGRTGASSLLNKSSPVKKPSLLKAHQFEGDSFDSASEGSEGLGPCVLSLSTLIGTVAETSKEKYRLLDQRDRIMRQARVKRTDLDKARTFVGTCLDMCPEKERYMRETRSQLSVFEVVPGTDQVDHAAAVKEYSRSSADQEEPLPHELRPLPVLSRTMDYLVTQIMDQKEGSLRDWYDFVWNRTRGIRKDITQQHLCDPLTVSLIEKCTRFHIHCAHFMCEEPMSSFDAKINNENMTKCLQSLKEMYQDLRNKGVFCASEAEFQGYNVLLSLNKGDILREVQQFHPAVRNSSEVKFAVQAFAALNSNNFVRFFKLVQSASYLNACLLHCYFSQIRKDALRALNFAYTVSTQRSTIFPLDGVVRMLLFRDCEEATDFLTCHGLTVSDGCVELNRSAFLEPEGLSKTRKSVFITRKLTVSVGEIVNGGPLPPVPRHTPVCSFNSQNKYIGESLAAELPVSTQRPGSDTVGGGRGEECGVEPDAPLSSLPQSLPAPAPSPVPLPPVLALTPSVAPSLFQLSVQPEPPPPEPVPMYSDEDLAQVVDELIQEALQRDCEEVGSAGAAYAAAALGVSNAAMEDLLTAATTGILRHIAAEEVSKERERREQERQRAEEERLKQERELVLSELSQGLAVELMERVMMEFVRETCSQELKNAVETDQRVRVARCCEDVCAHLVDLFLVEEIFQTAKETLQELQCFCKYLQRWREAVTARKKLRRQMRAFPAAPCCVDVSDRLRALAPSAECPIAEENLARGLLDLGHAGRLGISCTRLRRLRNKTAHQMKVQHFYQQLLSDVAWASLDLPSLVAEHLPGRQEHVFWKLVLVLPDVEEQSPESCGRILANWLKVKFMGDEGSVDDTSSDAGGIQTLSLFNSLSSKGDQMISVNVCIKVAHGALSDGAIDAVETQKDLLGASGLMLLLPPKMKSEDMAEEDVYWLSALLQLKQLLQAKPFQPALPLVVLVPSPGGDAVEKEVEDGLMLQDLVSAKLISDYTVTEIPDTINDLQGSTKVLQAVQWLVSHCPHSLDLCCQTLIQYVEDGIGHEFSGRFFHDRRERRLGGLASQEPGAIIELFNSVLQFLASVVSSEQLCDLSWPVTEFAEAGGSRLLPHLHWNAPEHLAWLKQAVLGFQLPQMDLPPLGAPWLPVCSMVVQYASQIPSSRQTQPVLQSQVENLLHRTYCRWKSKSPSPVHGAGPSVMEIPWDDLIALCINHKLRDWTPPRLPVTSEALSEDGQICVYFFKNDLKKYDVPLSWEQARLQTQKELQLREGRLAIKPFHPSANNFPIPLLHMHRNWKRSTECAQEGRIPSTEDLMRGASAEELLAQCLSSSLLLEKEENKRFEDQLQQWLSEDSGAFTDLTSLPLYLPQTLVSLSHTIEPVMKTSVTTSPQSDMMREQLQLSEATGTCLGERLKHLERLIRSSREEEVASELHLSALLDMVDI

Target: GANP–3×Flag (endogenously tagged) (human (endogenous in HeLa)) (UniProt O60318)
Experiment: affinity purification with mass spectrometry; anti-Flag IP from extracts of HeLa cells with endogenously 3×Flag-tagged GANP, LENG8 or PCID2; high stringency (washes with 450 mM NaCl); with or without Pierce universal nuclease; label-free, triplicates, against maternal HeLa

B1: ENY2 (endogenous) (protein, UniProt Q9NPA8 1-101)
chain: MVVSKMNKDAQMRAAINQKLIETGERERLKELLRAKLIECGWKDQLKAHCKEVIKEKGLEHVTVDDLVAEITPKGRALVPDSVKKELLQRIRTFLAQHASL
binding: binds
